Measurements reported in PubChem BioAssay AID652272 (Drosophila RNAi Screening Center, 2013)

Screen: 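Genome-wide knock-down search for components of Hedgehog signalling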 (primary screen)
Cell system: Drosophila clone 8 (Cl8) cells
Reagents: long dsRNA against Drosophila genes
Detection: 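Firefly light from a Hedgehog-responsive ptc promoter reporter and Renilla reference light, both read on a plate reader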
Direction: firefly Hh reporter signal: higher = more ptc reporter light; Renilla reference signal: higher = more Renilla control light
Hit rule: 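Hit when the z-score averaged over two replicates is under -2 or over +3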
Meaning of the calls: active = hit: reporter lowered or raised; inactive = not a hit
The screen tested about 21,000 reagents; below is a random part of those that have a named target and a result. Over the whole deposit, 503 (2.4%) were called active. 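Raw plate light values, not normalised; calls rest on replicate z-scores that were not deposited; hits include reporter decreases as well as increases.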 A number with no mark means an inactive call. A plus sign joins genes that one reagent is predicted to hit. Not stated in the record: the amount of reagent, the time to read-out.

no.	gene	dsRNA	firefly Hh reporter signal, replicate 1	firefly Hh reporter signal, replicate 2	firefly Hh reporter signal, replicate 3	Renilla reference signal, replicate 1	Renilla reference signal, replicate 2
1	CG13216 (GeneID 36181)	DRSC06338	89560	39808		2161	3025
2	CG10565 (GeneID 40332)	DRSC11620	64081	51572		2744	2304
3	Hyccin (GeneID 37019)	DRSC06983	94002	98346		4312	4054
4	CG6650 (GeneID 39555)	DRSC10685	1.21e5	53456		4513	1770
5	CG9068 (GeneID 36817)	DRSC07329	85329	64295		2701	4736
6	CG3679 (GeneID 32591)	DRSC19346	86021	83781		1408	1156
7	PGRP-LD + Pmi	DRSC10512	1.09e5	1.05e5		4358	4773
8	PGRP-LD + Pmi	DRSC10513	83216	90377		8521	6326
9	tsh (GeneID 35430)	DRSC03740	86312	61353		2311	5476
10	sgg (GeneID 31248)	DRSC17228	5.44e5	2.64e5		29722	6042
11	sgg (GeneID 31248)	DRSC17722	5.47e5	2.70e5		26677	5409
12	sgg (GeneID 31248)	DRSC18832	70440	1.33e5		1920	5115
13	Panx (GeneID 37434)	DRSC04563	88858	50919		2381	4490
14	dikar (GeneID 38747)	DRSC09699	36163	56109		1664	1986
15	CG18004 (GeneID 36154)	DRSC06705	2.07e5	1.13e5		6008	2965
16	Optix (GeneID 44108)	DRSC05078	7.91e5	1.44e5	1.89e5	7158	10608
17	Optix (GeneID 44108)	DRSC07484	85606	51771		3977	2032
18	gzl (GeneID 40791)	DRSC12517	1.41e5	1.08e5		5408	4265
19	CG4462 (GeneID 42376)	DRSC15583	1.04e5	63962		4279	2779
20	lncRNA:CR43372 (GeneID 12798502)	DRSC15041	7.91e5	1.50e5		46106	2710
21	Lrrk (GeneID 42447)	DRSC15816	7.61e5	7.46e5	1.50e5	42980	5522
22	gny (GeneID 34409)	DRSC02810	83613	51192		3040	2340
23	CG14762 (GeneID 35768)	DRSC05073	1.30e5	2.56e5		17363	11092
24	CG14762 (GeneID 35768)	DRSC06496	64149	40042		1657	3621
25	hbs (GeneID 44129)	DRSC07627	1.26e5	66626		3210	5547
26	CG43095 (GeneID 12798518)	DRSC13573	2313	1.65e5		560	4547
27	Ir7b (GeneID 31690)	DRSC18009	40156	1.22e5		2236	6874
28	CG13228 (GeneID 36178)	DRSC06348	94032	46972		1985	3202
29	CG13021 (GeneID 31323)	DRSC17893	79034	1.60e5		877	5853

Part of the list above, limited to “Renilla reference signal, replicate 2”.
CG9068 (GeneID 36817) [DRSC07329] = 4736
CG3679 (GeneID 32591) [DRSC19346] = 1156
PGRP-LD + Pmi [DRSC10512] = 4773
PGRP-LD + Pmi [DRSC10513] = 6326

More reagents:
no.	gene	dsRNA	firefly Hh reporter signal, replicate 1	firefly Hh reporter signal, replicate 2	firefly Hh reporter signal, replicate 3	Renilla reference signal, replicate 1	Renilla reference signal, replicate 2
30	Hacd1 (GeneID 34614)	DRSC02988	59587	33396		2992	2000
31	beat-IV (GeneID 42778)	DRSC14195	1.28e5	90615		5061	3763
32	beat-IV (GeneID 42778)	DRSC14673	5.10e5	1.17e5		28035	3860
33	CG6153 (GeneID 34675)	DRSC02935	88816	71825		4791	3190
34	CG8128 (GeneID 32504)	DRSC20084	1.14e5	1.24e5		2658	3261
35	bnb (GeneID 32872)	DRSC20314	1.25e5	1.14e5		3079	2967
36	CG4119 (GeneID 31481)	DRSC17741	1.04e5	89143		3048	2709
37	scaf6 (GeneID 3346235)	DRSC10075	1.36e5	1.18e5		5637	4528
38	scaf6 (GeneID 3346235)	DRSC10676	1.27e5			1539	3314
39	scaf6 (GeneID 3346235)	DRSC10678	66157			476	1120
40	Kr (GeneID 38012)	DRSC04622	66392	47568		1382	4243
41	Cyp4c3 (GeneID 43663)	DRSC16631	1.03e5	1.11e5		1874	2378
42	RpL34a (GeneID 43169)	DRSC15964	5.08e5	1.41e5		27347	5075
43	Ddrgk1 (GeneID 42516)	DRSC15897	1.01e5	91500		4085	4147
44	Pp1-13C (GeneID 48531)	DRSC20269	80994	2.29e5		2741	9369
45	CG7997 (GeneID 36829)	DRSC07052	1.18e5	75030		5616	2873
46	wtrw (GeneID 40931)	DRSC14241	1.38e5	57708		5447	2944
47	wtrw (GeneID 40931)	DRSC15278	55959	4.10e5	83786	2384	3106
48	CG1416 (GeneID 35426)	DRSC03706	88619	82688		3610	2908
49	Ac76E (GeneID 40180)	DRSC09642	2.43e5			5200	
50	Ac76E (GeneID 40180)	DRSC09662	1.21e5	86295		4803	3639
51	Ssb-c31a (GeneID 34120)	DRSC03443	1.73e5	71229		4640	7057
52	RhoGEF2 (GeneID 36915)	DRSC07531	1.20e5	98090		4744	3616
53	poe (GeneID 46243)	DRSC03593	1.25e5	41691		4994	2388
54	l(2)gd1 (GeneID 34543)	DRSC02773	52819	58168		2912	2464
55	CG8010 (GeneID 32921)	DRSC20072	1.25e5	85062		3052	1649
56	yellow-d (GeneID 37703)	DRSC04589	86535	64342		1991	6423
57	CG10927 (GeneID 37135)	DRSC06014	1.22e5	1.12e5		4993	4483
58	TwdlP (GeneID 43201)	DRSC14734	1.26e5	1.36e5		3925	3408
59	pigs (GeneID 31596)	DRSC17472	4.77e5	2.34e5		26836	5323
60	pigs (GeneID 31596)	DRSC18334	60466	1.85e5		2642	7532
61	pigs (GeneID 31596)	DRSC18335	65291	2.03e5		2615	8872
62	mor (GeneID 41942)	DRSC15378	74692	68704		1664	5552
63	Rme-8 (GeneID 35939)	DRSC07054	1.06e5	89376		4777	3488
64	BomBc2 (GeneID 37102)	DRSC06502	62550	41405		1653	3353
65	CG18641 (GeneID 33429)	DRSC00527	94768	1.31e5		2506	2857
66	piwi (GeneID 34521)	DRSC03592	74315	46465		3448	2099
67	CG5282 (GeneID 40256)	DRSC11775	80267	50962		3314	2304
68	CG11334 (GeneID 43713)	DRSC14066	5.50e5	1.97e5		26211	3623
69	CG11334 (GeneID 43713)	DRSC14302	92199	2.42e5		1746	8789
70	Cdk5alpha (GeneID 34385)	DRSC03290	1.02e5	44885		2756	4595
71	CG6893 (GeneID 40038)	DRSC10742	1.01e5			4154	2983
72	CG11147 (GeneID 33803)	DRSC02129	74244	38438		2277	4316
73	CG15549 (GeneID 43665)	DRSC15087	1.13e5	1.47e5		3604	3874
